Results published in article PMC11024252.
Results are given in words; binding and its absence hold for the method and conditions named. In cells and extracts the contact can be indirect. Some binding calls cover weakened binding; strength is not graded here.

How the values were obtained:
[1] = target: T1, NFATc1 (human (endogenous in IVD cells)) (UniProt O95644); test: proximity ligation; in situ PLA (Duolink In Situ Orange, Mouse/Rabbit) on IVD cells fixed in 100% methanol; primary antibodies anti-P2X7R (#P8232) with anti-NFATc1 (# sc-7294) or anti-lamin A/C (# sc-376248); endogenous proteins; 100 cells or nuclei counted per sample
T1 sequence: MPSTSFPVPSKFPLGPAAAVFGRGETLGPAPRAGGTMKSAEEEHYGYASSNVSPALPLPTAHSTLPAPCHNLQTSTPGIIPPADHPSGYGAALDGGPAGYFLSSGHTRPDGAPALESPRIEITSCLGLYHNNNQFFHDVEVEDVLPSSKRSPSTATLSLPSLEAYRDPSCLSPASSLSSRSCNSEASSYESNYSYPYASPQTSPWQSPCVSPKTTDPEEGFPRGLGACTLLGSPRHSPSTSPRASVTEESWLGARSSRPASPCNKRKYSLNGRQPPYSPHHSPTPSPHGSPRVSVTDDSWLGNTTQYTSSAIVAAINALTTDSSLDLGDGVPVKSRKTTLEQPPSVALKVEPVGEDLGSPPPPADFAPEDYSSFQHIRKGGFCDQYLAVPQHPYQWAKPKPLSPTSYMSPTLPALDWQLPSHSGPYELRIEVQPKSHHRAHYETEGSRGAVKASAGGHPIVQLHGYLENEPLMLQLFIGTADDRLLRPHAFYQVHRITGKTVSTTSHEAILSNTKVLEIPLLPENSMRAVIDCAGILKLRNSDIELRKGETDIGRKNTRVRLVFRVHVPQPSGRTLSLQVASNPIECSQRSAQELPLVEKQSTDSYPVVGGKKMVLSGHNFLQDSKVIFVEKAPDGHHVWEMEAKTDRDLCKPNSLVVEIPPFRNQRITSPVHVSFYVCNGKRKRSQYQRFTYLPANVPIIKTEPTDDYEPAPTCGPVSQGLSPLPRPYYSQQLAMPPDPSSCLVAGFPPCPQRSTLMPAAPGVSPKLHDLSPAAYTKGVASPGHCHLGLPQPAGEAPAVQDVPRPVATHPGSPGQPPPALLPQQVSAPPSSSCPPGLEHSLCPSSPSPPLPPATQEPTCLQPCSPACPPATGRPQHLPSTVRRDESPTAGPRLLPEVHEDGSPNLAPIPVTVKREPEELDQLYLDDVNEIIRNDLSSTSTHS

[2] = target: T1, NFATc1 (human (endogenous in IVD cells)); test: co-IP; IVD cells from four patients of the same grade of degeneration pooled, lysed in RIPA buffer (50 mM Tris-HCl pH 7.8, 1% NP-40, 150 mM NaCl, 0.5% SDC, 0.1% SDS); 1 mg lysate with 10 ug anti-NFATc1 (# sc-7294) 12 h at 4°C, Protein A + G magnetic beads; blot with anti-NFATc1 and anti-P2X7R; normal mouse IgG as negative control

B1: P2X7 receptor (receptor, UniProt Q99572 1-595)
chain: MPACCSCSDVFQYETNKVTRIQSMNYGTIKWFFHVIIFSYVCFALVSDKLYQRKEPVISSVHTKVKGIAEVKEEIVENGVKKLVHSVFDTADYTFPLQGNSFFVMTNFLKTEGQEQRLCPEYPTRRTLCSSDRGCKKGWMDPQSKGIQTGRCVVYEGNQKTCEVSAWCPIEAVEEAPRPALLNSAENFTVLIKNNIDFPGHNYTTRNILPGLNITCTFHKTQNPQCPIFRLGDIFRETGDNFSDVAIQGGIMGIEIYWDCNLDRWFHHCRPKYSFRRLDDKTTNVSLYPGYNFRYAKYYKENNVEKRTLIKVFGIRFDILVFGTGGKFDIIQLVVYIGSTLSYFGLAAVFIDFLIDTYSSNCCRSHIYPWCKCCQPCVVNEYYYRKKCESIVEPKPTLKYVSFVDESHIRMVNQQLLGRSLQDVKGQEVPRPAMDFTDLSRLPLALHDTPPIPGQPEEIQLLRKEATPRSRDSPVWCQCGSCLPSQLPESHRCLEELCCRKKPGACITTSELFRKLVLSRHVLQFLLLYQEPLLALDVDSTNSRLRHCAYRCYATWRFGSQDMADFAILPSCCRWRIRKEFPKSEGQYSGFKSPY
For B1, the binding [1] was “binds” and the binding [2] was “binds”.
